Measured values published in patent US9133245B2, “Cyclic lactadherin peptide mimetics and their uses” (TRUSTEES OF BOSTON COLLEGE, priority 2011, dated 2015).
At least one compound was matched to its structure with a doubt left.

System: apoptotic HeLa and Jukat cells (STS or CPT treated)
Test: Cell imaging of apoptotic cells by epifluorescence microscopy
Assay type: cell-based, human
Details: 0.1 μM STS or CPT for 4 hours; early apoptotic cells
Experimental: The fluorescent derivative was tested for its potential to stain apoptotic cells. Cultured HeLa and Jukat cells were treated with the potent apoptogen staurosporine (STS) or camptothecin (CPT) respectively to trigger apoptosis. The experimental conditions were optimized with the FITC-labeled annexin V and the membrane impermeable DNA intercalator propidium iodine (PI). The treatment with 0.1 μM STS or CPT for 4 hours gave a large population of early apoptotic cells (data not shown), which were stained with annexin, but not PI. This indicates increased presence of PS exposure on the outer membrane leaflet of the cells experiencing early apoptosis. […] As negative controls, both fluorescein alone as well as the FITC-labeled linear precursor of cLac were used to label the apoptotic cells and tested for fluorescence staining. […] This observation is consistent with the previous reports that annexin V preferentially binds to cells at the early stages of apoptosis. Since these early apoptotic cells hold their membrane integrity (PI negative), it is believed cLac2-Fl stained the cells by binding to their outer surfaces, presumably to PS.

O=C1OC2(c3ccc(O)cc3Oc3cc(O)ccc32)c2ccccc21 [fluorescein, reference compound]
staining of apoptotic cells: Neither control stained
